According to PubChem BioAssay AID588590 (National Center for Advancing Translational Sciences (NCATS), 2011):
Among all 390,000 compounds or so, about 4,000 (1%) were called active. Inconclusive results, whose numbers are uncertain, are shown with a selection of clear calls. The call rests on the fitted dose curve; in most records, active means well fitted inhibition curve with a large enough effect; inconclusive means small, poorly fitted or top-dose-only effect, or another doubt; inactive means no such curve, though single readings can be large or run the other way. Where the call is inconclusive, the potency comes from a doubtful curve fit.

The chains behind the UniProt entries cited, without tags or fusion partners. Where a name states a change or a piece, a line headed by the entry shows the natural chain unless it says otherwise.
UniProt Q9UNA4: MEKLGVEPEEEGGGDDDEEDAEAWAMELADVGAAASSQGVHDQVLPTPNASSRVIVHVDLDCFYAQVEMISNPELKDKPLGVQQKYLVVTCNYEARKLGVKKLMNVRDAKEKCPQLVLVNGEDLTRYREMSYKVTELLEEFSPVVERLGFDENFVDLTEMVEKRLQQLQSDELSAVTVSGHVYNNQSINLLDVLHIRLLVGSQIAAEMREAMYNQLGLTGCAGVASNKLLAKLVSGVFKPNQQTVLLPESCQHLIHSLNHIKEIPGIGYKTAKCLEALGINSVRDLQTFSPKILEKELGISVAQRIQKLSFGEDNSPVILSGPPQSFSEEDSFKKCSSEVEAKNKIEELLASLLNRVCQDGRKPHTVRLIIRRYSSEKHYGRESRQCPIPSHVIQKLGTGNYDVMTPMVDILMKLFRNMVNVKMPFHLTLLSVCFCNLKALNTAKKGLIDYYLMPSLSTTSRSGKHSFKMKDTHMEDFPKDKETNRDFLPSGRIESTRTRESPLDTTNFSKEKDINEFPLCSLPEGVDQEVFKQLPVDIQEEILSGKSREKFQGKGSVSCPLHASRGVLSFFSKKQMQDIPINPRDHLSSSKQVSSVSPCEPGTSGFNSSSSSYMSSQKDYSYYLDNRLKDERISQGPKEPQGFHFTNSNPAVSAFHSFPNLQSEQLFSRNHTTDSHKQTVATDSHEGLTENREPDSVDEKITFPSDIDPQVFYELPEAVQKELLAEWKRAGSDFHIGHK

target: DNA polymerase iota (Homo sapiens) (UniProt Q9UNA4); assay: qHTS for Inhibitors of Polymerase Iota; settings: Pol iota fluorescent replication assay, 10 min; series mostly up to 115 µM
How it was run: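 Pol iota at 10 nM preincubated 15 min with compounds at room temperature; reaction started with fluorescent substrate, 50 nM final. Fluorescence read kinetically at 0 and 10 min; buffer-only wells as negative control.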
Potency means the concentration at half of the fitted maximal effect.

Potency, inconclusive:
CNc1nc(Nc2ccc(Br)cc2)nc(N)c1[N+](=O)[O-] 112 µM [inhibitor, partial curve, poor fit]
CCN(C(=O)COC(=O)C1CC1)c1c(N)n(Cc2ccccc2)c(=O)[nH]c1=O 44.7 µM [inhibitor, partial curve, poor fit]
CCn1cc(NC(=O)Nc2ccccc2C(=O)OC)c(C(N)=O)n1 22.4 µM [inhibitor, full curve, poor fit]
O=C(c1ccc(Cl)cc1)C(CN1CCCC1)c1ccccc1 (stereo unspecified) 10 µM [inhibitor, single point]
O=C(CNC(=O)c1ccc(Br)o1)NNC(=O)c1n[nH]c(=O)c2ccccc12 70.8 µM [inhibitor, partial curve]
Cc1ccc(S(=O)(=O)n2nc(-c3ccccc3)nc2NCc2ccccc2Cl)cc1 79.4 µM [inhibitor, partial curve, poor fit]
O=C(NC(=S)Nc1ccccc1O)c1cncc(Br)c1 25.1 µM [inhibitor, partial curve, poor fit]
O=C(c1ccccc1)C1OC1C(=O)c1ccccc1 (stereo unspecified) 15.8 µM [inhibitor, full curve, poor fit]
Nc1nonc1C(=O)N/N=C\c1cc2c(cc1Cl)OCO2 35.5 µM [inhibitor, partial curve, poor fit]
O=C(/C=C1\C(=O)Nc2ccccc21)/C=C1\C(=O)Nc2ccccc21 11.2 µM [inhibitor, partial curve]
O=C(Nc1nc(=O)c2ccccc2s1)c1ccccc1 35.5 µM [inhibitor, partial curve, poor fit]
C=CCOc1ccccc1CN(C(=O)CCl)c1ccc2c(c1)OCO2 12.6 µM [inhibitor, partial curve, poor fit]
CCN1CCN(Cc2ccc(NC(=O)c3cc(NC(=O)c4cc(C)on4)cc(OC)c3)cc2C(F)(F)F)CC1 7.08 µM [inhibitor, partial curve, poor fit]
O=C(CSc1nc(=O)n2cc(Cl)ccc2n1)Nc1cccc2ccccc12 17.8 µM [inhibitor, full curve]

Potency, inactive:
COc1ccc(C(=O)N2CC(=O)Nc3ccc(C)cc3C2c2ccc(F)cc2)c(OC)c1 (stereo unspecified)
CCC(=O)N1CCc2cc(Br)cc(S(=O)(=O)CCC(=O)NCCc3ccc(C)cc3)c21
